Assay results: patent US20250325535A1, “IDENTIFICATION OF NOVEL SMALL-MOLECULE INHIBITORS OF SARS-CoV-2 BY CHEMICAL GENETICS” (The University of Hong Kong, priority 2024, published 2025)
At least one structure is not confirmed: it was looked up by name or label, or the drawing left a doubt.

How the values were obtained:
[1] = tested on: SARS-CoV-2 D614G virus; format: cell-based; conditions: read-out: IC50 (plaque reduction assay)
[2] = tested on: 3CLpro S301P recombinant SARS-CoV-2; format: cell-based
[3] = tested on: 3CLpro S301P recombinant SARS-CoV-2; format: cell-based; remark: listed apart in the source
[4] = tested on: SARS-COV-2 Alpha variant (B.1.1.7); format: in vivo, K18-hACE2 transgenic mice
[5] = tested on: Omicron BA.5 variant; parameters: species or system K18-hACE2 transgenic mice; conditions: mouse, in vivo

With `Cc1ccc(C2C3=C(CC(c4ccccc4)CC3=O)NC3=C2C(=O)c2ccccc23)cc1` (stereo not drawn) [Compound 172, 10-(4-methylphenyl)-7-phenyl-6,7,8,10-tetrahydro-5H-indeno[1,2-b]quinoline-9,11-dione] the IC50 [1] was 1820 nM, the CPE inhibition phenotype [2] was “abolished” and the plaque reduction phenotype [3] was “no plaque reduction phenotype is observed”. The “body weight vs vehicle control group” value ([4]; 50 mg/kg IP once daily, day 4) was “significant benefit in weight percentage”, the “time of death (survival)” value ([4]; mouse, in vivo) was “one mouse died on day 6, and all remaining mice died on day 7 and/or 8” and the “live virus titer in upper and lower respiratory tract” value [5] was “can reduce live virus titer”.
